Drawing on paper doi:10.1101/2024.07.03.601791, this text covers binding for one molecule.

Sequences of proteins named here, by UniProt entry; tags and fusion partners are left off. Residues count along the entry.
UniProt Q92973, residues 9-898: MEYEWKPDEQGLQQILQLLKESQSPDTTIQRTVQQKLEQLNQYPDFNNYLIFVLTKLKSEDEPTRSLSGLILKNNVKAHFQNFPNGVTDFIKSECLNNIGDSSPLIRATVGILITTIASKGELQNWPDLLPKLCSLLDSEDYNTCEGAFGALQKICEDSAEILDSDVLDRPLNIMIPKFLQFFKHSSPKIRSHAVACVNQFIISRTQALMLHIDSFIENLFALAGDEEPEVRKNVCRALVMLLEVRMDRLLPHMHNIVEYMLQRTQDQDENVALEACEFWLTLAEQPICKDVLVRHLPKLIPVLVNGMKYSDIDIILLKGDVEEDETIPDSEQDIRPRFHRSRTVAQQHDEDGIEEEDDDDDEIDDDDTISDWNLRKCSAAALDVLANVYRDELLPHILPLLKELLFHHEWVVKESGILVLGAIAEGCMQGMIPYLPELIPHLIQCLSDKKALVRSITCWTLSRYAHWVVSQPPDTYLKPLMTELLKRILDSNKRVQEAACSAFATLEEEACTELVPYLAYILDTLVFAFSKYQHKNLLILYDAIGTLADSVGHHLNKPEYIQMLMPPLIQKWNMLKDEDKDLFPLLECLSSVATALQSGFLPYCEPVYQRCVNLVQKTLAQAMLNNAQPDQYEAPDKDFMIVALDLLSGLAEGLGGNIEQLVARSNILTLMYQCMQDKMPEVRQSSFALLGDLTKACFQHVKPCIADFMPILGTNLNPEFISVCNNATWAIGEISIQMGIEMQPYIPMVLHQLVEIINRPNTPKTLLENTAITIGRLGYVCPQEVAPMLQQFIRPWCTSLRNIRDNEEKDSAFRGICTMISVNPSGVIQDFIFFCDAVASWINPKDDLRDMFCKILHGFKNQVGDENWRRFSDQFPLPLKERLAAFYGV

No constants are given. Whether binding was seen depends on the method and setting. Some entries that bind do so weakly or less than the wild type. Where a sequence is shown, tags or fusion partners need not be part of it.

This experiment addresses GST-Kapβ2 (human) (UniProt Q92973). Kind of experiment: pull-down.

B1: MBP fused with the NLS region of hnRNPA2 (NLS, residues 298-336) (domain or fragment, UniProt P22626-2 298-336)
chain: PSNYGPMKSGNFGGSRNMGGPYGGGNYGPGGSGGSGGYG
For the molecule B1, the binding result is given as “binds”.
